PubChem BioAssay AID2685 (National Center for Advancing Translational Sciences (NCATS), 2010)
The list shows a part of the results. Shown are side measurements of this screen, not its main read-out; they come without a call. The list favours compounds with an active or inconclusive main result. Words in brackets tell the shape of the fitted curve; partial curves, single points and poor fits give uncertain potencies.

Test: qHTS Assay for Lipid Storage Modulators in Drosophila S3 Cells;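 for cell number change: cells counted by Cell Tracker Red CMTPX staining in the red channel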
Details: BODIPY lipid droplet fluorescence, 18-24 h; for cell number change: measured here: cell count max response, cells fed with added oleic acid
How it was run: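 Laser-scanning cytometry quantifies lipid droplet accumulation (500–530 nm total intensity; droplet/cell object ratio) in oleic acid-fed (400 uM added) Drosophila S3 cells treated with a concentration series. 20 uM Triacsin C defined 100% inhibition.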

[1] = measured here: lipid fluorescence (Fed channel) AC50, cells fed with added oleic acid
[2] = measured here: cell number channel AC50, cells fed with added oleic acid

Cc1ccc(-n2nnc(-c3cnc4ccccc4c3)n2)cc1
cell number change: -15%
AC50 [1]: 29.1 µM [falling, single point]

Cc1cc(NC(=O)CN2C(=O)NC(C)(c3ccc(OC(F)F)cc3)C2=O)no1 (stereo not given)
cell number change: 55.6%
AC50 [2]: 29.1 µM [rising, single point]
AC50 [1]: 29.1 µM [rising, partial curve]

Cn1cccc1/C=N/NC(=O)c1ccc[n+]([O-])c1
AC50 [1]: 0.517 µM [falling, single point]

COc1cccc(C(=O)N2CCN(S(C)(=O)=O)CC2)c1
cell number change: -90.6%
AC50 [2]: 18.4 µM [falling, partial curve]
AC50 [1]: 18.4 µM [falling, partial curve]

CCN(CC)CCSc1nc2ccccc2n1Cc1ccccc1
cell number change: -21.2%
AC50 [1]: 0.092 µM [falling, full curve, poor fit]

O=C(CC(=O)N/N=C/c1ccc(O)cc1)N/N=C/c1ccc(O)cc1
AC50 [2]: 6.51 µM [falling, single point]
AC50 [1]: 6.51 µM [falling, single point]

Cc1cccc(NC(=O)C2CCN(S(=O)(=O)c3c(C)[nH]c(=O)[nH]c3=O)CC2)c1
cell number change: 37.3%
AC50 [2]: 0.00517 µM [rising, full curve, poor fit]
AC50 [1]: 0.184 µM [rising, full curve]

CCOC(=O)c1c(C)[nH]c(C(=O)COC(=O)CSC)c1C
cell number change: -9.76%
AC50 [1]: 29.1 µM [rising, single point]

CCCCN(C(=O)c1ccc(Cl)c([N+](=O)[O-])c1)c1c(N)n(CCC)c(=O)[nH]c1=O
cell number change: -46.4%
AC50 [2]: 2.31 µM [falling, partial curve]
AC50 [1]: 0.326 µM [falling, full curve, poor fit]

CCn1cc(C(=O)OCC(=O)NCc2ccccc2Cl)c(=O)c2ccc(C)nc21
cell number change: 12.1%
AC50 [2]: 5.8 µM [rising, single point]

COc1nc(OCCNC(C)=O)nc(N(C)C)n1
cell number change: 8.2%
AC50 [1]: 29.1 µM [rising, single point]

Cc1ccc(S(=O)(=O)N2CCCOC2CNC(=O)C(=O)NCCCn2ccnc2)cc1 (stereo not given)
cell number change: -3.77%
AC50 [1]: 2.06 µM [falling, partial curve, poor fit]

CCOc1ccc(S(=O)(=O)NCCC(=O)NCCc2ccc(C(C)C)cc2)cc1
cell number change: 2.91%
AC50 [1]: 0.651 µM [falling, single point]

COc1ccc(NC(=O)c2cccnc2)cc1
cell number change: 33.9%
AC50 [1]: 29.1 µM [rising, single point]

CC1(c2cccc(Br)c2)NC(=O)N(CC(=O)N2CCc3ccccc32)C1=O (stereo not given)
cell number change: -15.7%
AC50 [1]: 0.231 µM [falling, full curve]

CC(=O)Nc1cc(NC(C)=O)cc(C(=O)OCC(=O)N(c2ccccc2)C2CCS(=O)(=O)C2)c1 (stereo not given)
cell number change: 9.94%
AC50 [1]: 5.8 µM [rising, full curve, poor fit]

CC(C)(C)OC(=O)CNC(=O)c1[nH]cnc1C(=O)N[C@@H](CCCCNC(=O)OC(C)(C)C)C(=O)OC(C)(C)C
cell number change: 17.9%
AC50 [1]: 9.2 µM [rising, partial curve, poor fit]

COc1ccc(OC)c(-c2csc(NC(=O)c3ccc(F)cc3)n2)c1
cell number change: -25.3%
AC50 [1]: 29.1 µM [falling, single point]

O=C(CN1C(=O)c2ccccc2S1(=O)=O)NCc1ccccn1
cell number change: -1.88%
AC50 [1]: 0.13 µM [falling, full curve, poor fit]

CNc1nc(N2CCc3ccccc32)ncc1F
cell number change: -34.3%
AC50 [2]: 13 µM [falling, partial curve]
AC50 [1]: 16.4 µM [falling, single point]

COc1ccc(OC)c(Nc2ncnc3sc(-c4ccccc4)cc23)c1
cell number change: 12.3%
AC50 [1]: 0.461 µM [rising, single point]

O=C(O)Cc1ccc(-c2ccccc2)cc1
cell number change: 4.74%
AC50 [1]: 0.326 µM [falling, partial curve, poor fit]

C=CCc1ccccc1OCC(=O)NNC(=S)NCc1ccccc1
cell number change: -29.5%
AC50 [1]: 6.51 µM [falling, single point]

CCN(CC)C(=O)C[n+]1cccc(C(N)=O)c1
cell number change: 50.9%
AC50 [2]: 2.06 µM [rising, full curve, poor fit]
AC50 [1]: 4.11 µM [rising, partial curve, poor fit]

COc1ccc2c(=O)c(C(=O)NCCc3ccccc3)c[nH]c2c1
cell number change: -4.19%

CCNc1nc2nc3ccc(C)cn3c(=O)c2cc1C(=O)NCC1CCCO1 (stereo not given)
cell number change: 17%
AC50 [1]: 0.58 µM [rising, single point]

Cc1ccc(C)c(S(=O)(=O)NCc2ccc(C(=O)N3CCCCC3C)cc2)c1 (stereo not given)
AC50 [2]: 6.51 µM [falling, single point]
AC50 [1]: 0.0291 µM [rising, full curve, poor fit]

O=c1c(-c2ccc(Cl)cc2)coc2c(CN3CCOCC3)c(O)ccc12
cell number change: -24.2%
AC50 [1]: 29.1 µM [rising, single point]

O=C(OCC(=O)N1CCc2ccccc21)c1ccc[n+]([O-])c1
cell number change: -30.8%
AC50 [2]: 0.0411 µM [falling, full curve]
AC50 [1]: 0.58 µM [falling, single point]

Clc1cccc(CN2CCc3c([nH]c4ccccc34)C2)c1Cl
cell number change: -48.4%
AC50 [2]: 32.6 µM [falling, partial curve]
AC50 [1]: 29.1 µM [falling, single point]

Cn1c2c(c(=O)n(C)c1=O)C(c1cccc([N+](=O)[O-])c1)Nc1ccccc1O2 (stereo not given)
cell number change: 15.7%
AC50 [1]: 1.46 µM [rising, full curve]

COc1cccc(OC)c1C(=O)NC(=S)Nc1ccc2c(c1)C(=O)N(C)C2=O
cell number change: 500%
AC50 [2]: 6.51 µM [falling, single point]
AC50 [1]: 0.0517 µM [falling, full curve, poor fit]

COc1ccc(Cl)cc1NC(=O)CN(C)C(=O)CCCc1c[nH]c2ccccc12
cell number change: -46.4%
AC50 [2]: 29.1 µM [falling, single point]

O=C(O)c1cccc(NC(=O)c2cc(NC(=O)c3ccccc3)cc(NC(=O)c3ccccc3)c2)c1
cell number change: -13.2%
AC50 [2]: 0.0517 µM [falling, full curve, poor fit]
